Reference: PubChem BioAssay AID504774 (Drosophila RNAi Screening Center, 2011)
Test: 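Genes required for cells to withstand methyl methanesulphonate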 (primary screen). System: Drosophila Kc167 cells. Reagent: long dsRNA against Drosophila genes, about 0.25 µg dsRNA per well. Duration: about 6 days: 3 days knock-down, then 3 days with or without MMS. Challenge: methyl methanesulphonate 0.004% (w/v) for 3 days after knock-down. Detection: 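ATP-dependent luminescence as a measure of live cells in MMS-exposed wells, quantile normalised within each plate, with replicate values also given as a mean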. Scale: mean viability with MMS: higher = more surviving cells after MMS.
The screen tested about 23,000 reagents; shown is a random part of those that have a named target and a result. 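Values are quantile-normalised luminescence on an arbitrary scale; higher means more cells surviving MMS.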 Further read-outs or replicates are left out here.

CG12438 [DRSC02167] — mean viability with MMS: 3.50e6
sti (sticky) [DRSC09739] — mean viability with MMS: 3.50e6
sti (sticky) [DRSC09740] — mean viability with MMS: 3.48e6
CG31861 [DRSC21665] — mean viability with MMS: 3.48e6
Kaz-m1 (Kazal-type protease inhibitor m1) [DRSC16990] — mean viability with MMS: 3.65e6
CG8468 [DRSC07190] — mean viability with MMS: 3.47e6
Ir7c (Ionotropic receptor 7c) [DRSC18007] — mean viability with MMS: 3.34e6
Hcf (Host cell factor) [DRSC17143] — mean viability with MMS: 3.39e6
osi (orsai) [DRSC02931] — mean viability with MMS: 3.60e6
Syx16 (Syntaxin 16) [DRSC20507] — mean viability with MMS: 3.45e6
CG31882 [DRSC01084] — mean viability with MMS: 3.62e6
Hand [DRSC02656] — mean viability with MMS: 3.78e6
Dis3 [DRSC16034] — mean viability with MMS: 3.41e6
klg (klingon) [DRSC13591] — mean viability with MMS: 3.46e6
klg (klingon) [DRSC16978] — mean viability with MMS: 3.49e6
AlaRS (Alanyl-tRNA synthetase) [DRSC01851] — mean viability with MMS: 3.41e6
Qsox4 (Quiescin sulfhydryl oxidase 4) [DRSC14224] — mean viability with MMS: 3.48e6
CG17883 [DRSC07838] — mean viability with MMS: 3.55e6
TrxT (Thioredoxin T) [DRSC22182] — mean viability with MMS: 3.52e6
TrxT (Thioredoxin T) [DRSC23117] — mean viability with MMS: 3.45e6
cyr (cypher) [DRSC18017] — mean viability with MMS: 3.56e6
cyr (cypher) [DRSC18018] — mean viability with MMS: 3.61e6
cyr (cypher) [DRSC18021] — mean viability with MMS: 3.51e6
CG4360 [DRSC15566] — mean viability with MMS: 3.76e6
JMJD4 (Jumonji domain containing 4) [DRSC03025] — mean viability with MMS: 3.49e6
azot (ahuizotl) [DRSC06051] — mean viability with MMS: 3.61e6
CG4230 [DRSC02740] — mean viability with MMS: 3.75e6
step (steppke) [DRSC03694] — mean viability with MMS: 3.44e6
step (steppke) [DRSC03699] — mean viability with MMS: 3.56e6
NetB (Netrin-B) [DRSC20262] — mean viability with MMS: 3.54e6
Ncc69 (sodium chloride cotransporter 69) [DRSC10412] — mean viability with MMS: 3.65e6
Ncc69 (sodium chloride cotransporter 69) [DRSC10413] — mean viability with MMS: 3.36e6
tHMG1 (testis-enriched HMG-box-containing protein 1) [DRSC16181] — mean viability with MMS: 3.45e6
Tango5 (Transport and Golgi organization 5) [DRSC18023] — mean viability with MMS: 3.54e6
CG14759 [DRSC06494] — mean viability with MMS: 3.72e6

Entries listed so far whose gene name starts with N or n:
NetB (Netrin-B) [DRSC20262] — mean viability with MMS: 3.54e6
Ncc69 (sodium chloride cotransporter 69) [DRSC10412] — mean viability with MMS: 3.65e6
Ncc69 (sodium chloride cotransporter 69) [DRSC10413] — mean viability with MMS: 3.36e6
